Experimental findings from article doi:10.1101/204172 are described below.

For the assay, the target named is T1, USH1C (harmonin) (UniProt Q9ES64).
T1 sequence: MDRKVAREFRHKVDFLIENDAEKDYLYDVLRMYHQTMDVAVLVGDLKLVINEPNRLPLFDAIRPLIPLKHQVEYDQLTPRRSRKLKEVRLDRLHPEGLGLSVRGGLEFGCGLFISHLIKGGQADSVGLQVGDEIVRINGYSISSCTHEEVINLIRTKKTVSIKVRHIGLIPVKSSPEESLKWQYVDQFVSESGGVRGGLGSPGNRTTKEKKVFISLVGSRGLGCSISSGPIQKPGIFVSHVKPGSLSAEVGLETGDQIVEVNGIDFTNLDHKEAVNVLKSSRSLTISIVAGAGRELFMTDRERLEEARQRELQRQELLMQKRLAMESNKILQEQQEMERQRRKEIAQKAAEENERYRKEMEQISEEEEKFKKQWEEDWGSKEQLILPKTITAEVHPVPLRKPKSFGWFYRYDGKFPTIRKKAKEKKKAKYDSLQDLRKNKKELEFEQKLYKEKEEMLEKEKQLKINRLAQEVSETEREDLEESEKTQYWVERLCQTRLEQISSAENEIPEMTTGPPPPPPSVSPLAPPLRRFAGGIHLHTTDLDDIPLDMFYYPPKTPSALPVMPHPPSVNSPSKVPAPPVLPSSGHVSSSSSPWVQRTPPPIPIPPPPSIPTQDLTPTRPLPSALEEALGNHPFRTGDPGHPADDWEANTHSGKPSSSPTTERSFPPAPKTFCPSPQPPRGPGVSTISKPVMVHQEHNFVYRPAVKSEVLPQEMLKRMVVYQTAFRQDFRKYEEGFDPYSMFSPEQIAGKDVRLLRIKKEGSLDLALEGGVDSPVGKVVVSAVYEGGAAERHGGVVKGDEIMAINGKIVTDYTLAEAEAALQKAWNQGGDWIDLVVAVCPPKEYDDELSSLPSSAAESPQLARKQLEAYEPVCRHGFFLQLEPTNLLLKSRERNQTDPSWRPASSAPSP
Put plainly: two-hybrid.

These are yes or no findings as the source states them, for the method shown. A result given as binding can be weak or reduced; the word gives no strength.

Turning to “TRPV6, the 33 terminal amino acids with the PDZ-binding interface (PBI) (domain or fragment)”, the binding entry is reported as “binds”.
